Laboratory results as given in patent publication US12576124 (dated 2026).

Experiment: general procedure: solution-phase peptide synthesis; pentafluorophenyl ester (pentafluorophenol/DCC), DIPEA
Conditions: coupling step

| Substance | step yield |
| --- | --- |
| (2S,4R)-4-(2-((1R,3R)-1-acetoxy-3-((2S,3S)—N,3-dimethyl-2-(2-methyl-2-(pyrrolidin-1-yl)propanamido)pentanamido)-4-methylpentyl)thiazole-4-carboxamido)-5-(3-((2S,5S)-23-(2,5-dioxo-2,5-dihydro-1H-pyrrol-1-yl)-2,5-dimethyl-4,7,20-trioxo-10,13,16-trioxa-3,6,19-triazatricosanamido)-4-hydroxyphenyl)-2-methylpentanoic acid | 61% yield |
| (2S,4R)-4-(2-((6S,9R,11R)-6-((S)-sec-butyl)-9-isopropyl-2,3,3,8-tetramethyl-4,7,13-trioxo-12-oxa-2,5,8-triazatetradecan-11-yl)thiazole-4-carboxamido)-5-(3-((2S,5S)-23-(2,5-dioxo-2,5-dihydro-1H-pyrrol-1-yl)-2,5-dimethyl-4,7,20-trioxo-10,13,16-trioxa-3,6,19-triazatricosanamido)-4-hydroxyphenyl)-2-methylpentanoic acid | 65% yield |
